# According to article PMC5225419:
# The chains behind the UniProt entries cited, without tags or fusion partners. Where a name states a change or a piece, a line headed by the entry shows the natural chain unless it says otherwise. A line that says so, or that is headed by a name, gives the form on record, which may keep a tag or linker.
# UniProt O94811: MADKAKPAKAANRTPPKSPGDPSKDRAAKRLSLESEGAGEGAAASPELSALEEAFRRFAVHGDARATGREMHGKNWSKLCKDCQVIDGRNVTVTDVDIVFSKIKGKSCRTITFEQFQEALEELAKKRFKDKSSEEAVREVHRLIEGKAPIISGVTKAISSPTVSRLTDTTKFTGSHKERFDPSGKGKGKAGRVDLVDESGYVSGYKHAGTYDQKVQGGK
# CORE segment of TPPP/p25 (delta 3–43/delta 175–219) fused to mVenus BiFC fragments (pBiFC-VN1-173 or pBiFC-VC155-238) (O94811, form named): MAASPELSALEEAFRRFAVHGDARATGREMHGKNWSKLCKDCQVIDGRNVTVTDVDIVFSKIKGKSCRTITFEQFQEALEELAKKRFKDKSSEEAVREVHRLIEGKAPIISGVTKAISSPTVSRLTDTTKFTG
# Results are given in words; binding and its absence hold for the method and conditions named. For some of these results: In cells and extracts the contact can be indirect. Some results given as binding are weak or reduced against the parent protein; the word gives no strength.
# Key:
# [1] = target: CORE segment of TPPP/p25 (delta 3–43/delta 175–219) fused to mVenus BiFC fragments (pBiFC-VN1-173 or pBiFC-VC155-238) (human) (UniProt O94811); test: split reporter; mVenus BiFC (fragments 1-173 and 155-238) in HeLa cells co-transfected with 0.3 ug of each plasmid; fluorescence microscopy; empty mVenus pair as control
# [2] = target: full length (FL) human recombinant TPPP/p25 (Tubulin Polymerization Promoting Protein) (human) (UniProt O94811); test: ELISA; sandwich ELISA: 1 uM FL or CORE TPPP/p25 reduced with 100 uM DTE (30 min, room temperature) and captured on the mAb-coated plate; excess DTE removed; the different TPPP/p25 forms added; dimers detected with biotinylated mAb; PBS; no tubulin/MT; both purified
# [3] = target: full length (FL) human recombinant TPPP/p25 (Tubulin Polymerization Promoting Protein) (human) (UniProt O94811); test: ELISA; sandwich ELISA: plate coated with the TPPP/p25 mAb; TPPP/p25 form added (serial dilutions from 5 uM, or 1 uM) in PBS, 1 h, room temperature, without or with 100 uM DTE; dimers/oligomers detected with the same mAb biotinylated and peroxidase-avidin; no tubulin/MT; both purified
# [4] = target: FL TPPP/p25 fused to mVenus BiFC fragments (pBiFC-VN1-173 or pBiFC-VC155-238) (human) (UniProt O94811); test: split reporter; mVenus BiFC (fragments 1-173 and 155-238) in HeLa cells co-transfected with 0.3 ug of each plasmid; fluorescence microscopy; empty mVenus pair as control
substance,measurement,setting,value
CORE segment of TPPP/p25 (delta 3–43/delta 175–219) fused to mVenus BiFC fragments (pBiFC-VN1-173 or pBiFC-VC155-238) (from UniProt O94811 1-174) (domain or fragment),binding,[1],binds
full length (FL) human recombinant TPPP/p25 (Tubulin Polymerization Promoting Protein) (from UniProt O94811 1-219) (other; other documents disagree on this pair),binding,[2],binds
same,binding,[3],binds
FL TPPP/p25 fused to mVenus BiFC fragments (pBiFC-VN1-173 or pBiFC-VC155-238) (from UniProt O94811 1-219) (other; other documents disagree on this pair),binding,[4],binds
